In article PMC6294567, “The C-terminal D/E-rich domain of MBD3 is a putative Z-DNA mimic that competes for Zα DNA-binding activity” (Nucleic Acids Research, 2018) one finds binding data, which are given here for 4 molecules.

Chains of the proteins cited; added tags and fusions are not shown. Lines headed by an entry give the natural chain unless they say otherwise; changes in a name come on top. A line that says so, or that is headed by a name, gives the form on record, which may keep a tag or linker. Residues count along the entry.
UniProt O95983: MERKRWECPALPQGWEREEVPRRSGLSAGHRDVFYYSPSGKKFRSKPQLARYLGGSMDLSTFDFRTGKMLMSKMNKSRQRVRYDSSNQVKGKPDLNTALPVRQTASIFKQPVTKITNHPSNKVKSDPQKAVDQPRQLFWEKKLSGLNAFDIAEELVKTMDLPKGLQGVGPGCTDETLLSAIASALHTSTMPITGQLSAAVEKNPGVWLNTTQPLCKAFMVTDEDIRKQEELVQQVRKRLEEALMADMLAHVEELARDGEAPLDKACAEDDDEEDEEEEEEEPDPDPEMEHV
MBD domain of MBD3 (residues 1–72), tag-free: residues 1-72 of O95983

Assay [1] has as its target MBD domain of MBD3 (residues 1–72), tag-free (human) (UniProt O95983). The experiment in a line: SEC; purified MBDDE or MBD alone on Superdex 75 10/300 GL against protein standards; both purified. (In general: SEC sorts molecules by how far they enter the pores of the column.)
For assay [2] the target is unchanged. Nature of the assay: SEC; Zα (400 μM) and MBDDE (100 μM), or Zα and MBD under the same conditions, 4:1 molar ratio; 20 mM Tris-HCl pH 7.5, 50 mM NaCl, 1 mM TCEP; Superdex 75 10/300 GL; fractions on SDS-PAGE; both purified.
Assay [3] addresses FLAG-tagged MBD3, full-length (human) (UniProt O95983). The experiment in a line: co-IP; FLAG-MBD3 or truncation mutants expressed in 293F cells, 48 h; lysate (0.3% NP-40, Benzonase) on anti-FLAG M2 affinity gel overnight at 4°C, FLAG peptide elution; blot with anti-ADAR1.

Results are given in words; binding and its absence hold for the method and conditions named. For some of these results: In cells and extracts the contact can be indirect. Some results given as binding are weak or reduced against the parent protein; the word gives no strength. For some of these results: Where a sequence is shown, tags or fusion partners need not be part of it.

Take “MBD domain of MBD3 (residues 1–72), tag-free (from UniProt O95983-1 1-72) (domain or fragment)”: in assay [1], the binding result is recorded as “no binding”.

B1: Zα, tag-free (Z-DNA binding domain of human ADAR1, residues 133-209) (domain or fragment, UniProt P55265 133-209)
chain: LSIYQDQEQRILKFLEELGEGKATTAHDLSGKLGTPKKEINRVLYSLAKKGKLQKEAGTPPLWKIAVSTQAWNQHSG
Regarding B1, the binding entry in assay [2] was “no binding (tested: Zα and MBD at a 4:1 molar ratio)”.

B2: ADAR1-p110 (protein, UniProt P55265-5 1-931)
chain: MAEIKEKICDYLFNVSDSSALNLAKNIGLTKARDINAVLIDMERQGDVYRQGTTPPIWHLTDKKRERMQIKRNTNSVPETAPAAIPETKRNAEFLTCNIPTSNASNNMVTTEKVENGQEPVIKLENRQEARPEPARLKPPVHYNGPSKAGYVDFENGQWATDDIPDDLNSIRAAPGEFRAIMEMPSFYSHGLPRCSPYKKLTECQLKNPISGLLEYAQFASQTCEFNMIEQSGPPHEPRFKFQVVINGREFPPAEAGSKKVAKQDAAMKAMTILLEEAKAKDSGKSEESSHYSTEKESEKTAESQTPTPSATSFFSGKSPVTTLLECMHKLGNSCEFRLLSKEGPAHEPKFQYCVAVGAQTFPSVSAPSKKVAKQMAAEEAMKALHGEATNSMASDNQPEGMISESLDNLESMMPNKVRKIGELVRYLNTNPVGGLLEYARSHGFAAEFKLVDQSGPPHEPKFVYQAKVGGRWFPAVCAHSKKQGKQEAADAALRVLIGENEKAERMGFTEVTPVTGASLRRTMLLLSRSPEAQPKTLPLTGSTFHDQIAMLSHRCFNTLTNSFQPSLLGRKILAAIIMKKDSEDMGVVVSLGTGNRCVKGDSLSLKGETVNDCHAEIISRRGFIRFLYSELMKYNSQTAKDSIFEPAKGGEKLQIKKTVSFHLYISTAPCGDGALFDKSCSDRAMESTESRHYPVFENPKQGKLRTKVENGEGTIPVESSDIVPTWDGIRLGERLRTMSCSDKILRWNVLGLQGALLTHFLQPIYLKSVTLGYLFSQGHLTRAICCRVTRDGSAFEDGLRHPFIVNHPKVGRVSIYDSKRQSGKTKETSVNWCLADGYDLEILDGTRGTVDGPRNELSRVSKKNIFLLFKKLCSFRYRRDLLRLSYGEAKKAARDYETAKNYFKKGLKDMGYGNWISKPQEEKNFYLCPV
On to B2, for which the binding entry in assay [3] is “binds”.

B3: endogenous ADAR1 (adenosine deaminase acting on RNA), isoform not named in the results (protein, UniProt P55265 1-1226)
chain: MNPRQGYSLSGYYTHPFQGYEHRQLRYQQPGPGSSPSSFLLKQIEFLKGQLPEAPVIGKQTPSLPPSLPGLRPRFPVLLASSTRGRQVDIRGVPRGVHLRSQGLQRGFQHPSPRGRSLPQRGVDCLSSHFQELSIYQDQEQRILKFLEELGEGKATTAHDLSGKLGTPKKEINRVLYSLAKKGKLQKEAGTPPLWKIAVSTQAWNQHSGVVRPDGHSQGAPNSDPSLEPEDRNSTSVSEDLLEPFIAVSAQAWNQHSGVVRPDSHSQGSPNSDPGLEPEDSNSTSALEDPLEFLDMAEIKEKICDYLFNVSDSSALNLAKNIGLTKARDINAVLIDMERQGDVYRQGTTPPIWHLTDKKRERMQIKRNTNSVPETAPAAIPETKRNAEFLTCNIPTSNASNNMVTTEKVENGQEPVIKLENRQEARPEPARLKPPVHYNGPSKAGYVDFENGQWATDDIPDDLNSIRAAPGEFRAIMEMPSFYSHGLPRCSPYKKLTECQLKNPISGLLEYAQFASQTCEFNMIEQSGPPHEPRFKFQVVINGREFPPAEAGSKKVAKQDAAMKAMTILLEEAKAKDSGKSEESSHYSTEKESEKTAESQTPTPSATSFFSGKSPVTTLLECMHKLGNSCEFRLLSKEGPAHEPKFQYCVAVGAQTFPSVSAPSKKVAKQMAAEEAMKALHGEATNSMASDNQPEGMISESLDNLESMMPNKVRKIGELVRYLNTNPVGGLLEYARSHGFAAEFKLVDQSGPPHEPKFVYQAKVGGRWFPAVCAHSKKQGKQEAADAALRVLIGENEKAERMGFTEVTPVTGASLRRTMLLLSRSPEAQPKTLPLTGSTFHDQIAMLSHRCFNTLTNSFQPSLLGRKILAAIIMKKDSEDMGVVVSLGTGNRCVKGDSLSLKGETVNDCHAEIISRRGFIRFLYSELMKYNSQTAKDSIFEPAKGGEKLQIKKTVSFHLYISTAPCGDGALFDKSCSDRAMESTESRHYPVFENPKQGKLRTKVENGEGTIPVESSDIVPTWDGIRLGERLRTMSCSDKILRWNVLGLQGALLTHFLQPIYLKSVTLGYLFSQGHLTRAICCRVTRDGSAFEDGLRHPFIVNHPKVGRVSIYDSKRQSGKTKETSVNWCLADGYDLEILDGTRGTVDGPRNELSRVSKKNIFLLFKKLCSFRYRRDLLRLSYGEAKKAARDYETAKNYFKKGLKDMGYGNWISKPQEEKNFYLCPV
Turning to B3, the binding entry in assay [3] was “binds”.
